Test results taken from article PMC7338081.
These are yes or no findings as the source states them, for the method shown. In cells and extracts the contact can be indirect. Some entries that bind do so weakly or less than the wild type. For some of these results: Where a sequence is shown, tags or fusion partners need not be part of it. Values belong to the binder of their own block, whether it stands above or below them.

Chains of the proteins cited; added tags and fusions are not shown.
UniProt P18239: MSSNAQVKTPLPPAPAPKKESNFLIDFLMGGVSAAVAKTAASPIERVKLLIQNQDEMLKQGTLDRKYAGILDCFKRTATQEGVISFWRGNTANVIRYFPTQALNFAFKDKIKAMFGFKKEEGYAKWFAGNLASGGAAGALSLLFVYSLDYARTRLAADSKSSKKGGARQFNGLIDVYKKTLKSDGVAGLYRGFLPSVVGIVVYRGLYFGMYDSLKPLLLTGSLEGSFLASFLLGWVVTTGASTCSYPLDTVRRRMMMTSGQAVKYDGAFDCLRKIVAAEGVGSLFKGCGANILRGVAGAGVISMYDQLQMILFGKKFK

What was measured:
[1] = target: T1, Por1 (S. cerevisiae (endogenous in YPH499 mitochondria)), P04840; experiment: cross-linking; XL-MS, qualitative data sets: purified mitochondria from yeast grown on glycerol or glucose medium, 5 mM BS3, 1 h, room temperature, 10 mM HEPES pH 7.5, 100 mM NaCl; trypsin, peptide SEC, LC-MS/MS, pLink 1, at least two CSMs and spectrum score of 4 or more; conditions: remark: other sources report otherwise
T1 chain: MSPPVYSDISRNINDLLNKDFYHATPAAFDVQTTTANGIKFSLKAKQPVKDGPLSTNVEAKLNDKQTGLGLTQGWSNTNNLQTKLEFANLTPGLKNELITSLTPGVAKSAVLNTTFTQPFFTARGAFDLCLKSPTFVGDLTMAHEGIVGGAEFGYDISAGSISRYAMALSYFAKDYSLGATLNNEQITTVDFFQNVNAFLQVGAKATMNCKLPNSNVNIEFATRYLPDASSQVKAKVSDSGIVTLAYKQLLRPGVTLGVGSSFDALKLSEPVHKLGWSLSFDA

[2] = target: T2, Cox12, a subunit of CIV (S. cerevisiae (endogenous in YPH499 mitochondria)) (UniProt Q01519); experiment: cross-linking + co-IP; wild type and Min8-HA mitochondria treated with BS3, lysed in 0.5% Triton X-100 and 0.1% SDS (denaturing conditions), immunoisolated with Cox12 antisera or HA antibodies, SDS-PAGE and Western blotting
T2 sequence: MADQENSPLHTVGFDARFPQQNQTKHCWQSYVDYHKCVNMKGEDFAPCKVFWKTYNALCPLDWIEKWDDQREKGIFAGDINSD

[3] = target: Por1 (S. cerevisiae (endogenous in YPH499 mitochondria)) (UniProt P04840); experiment: cross-linking; XL-MS, qualitative data sets: purified mitochondria from yeast grown on glycerol or glucose medium, 5 mM BS3, 1 h, room temperature, 10 mM HEPES pH 7.5, 100 mM NaCl; trypsin, peptide SEC, LC-MS/MS, pLink 1, at least two CSMs and spectrum score of 4 or more
[4] = target: T3, Cox13 (S. cerevisiae (endogenous in YPH499 mitochondria)) (UniProt P32799); experiment: as above
T3 sequence: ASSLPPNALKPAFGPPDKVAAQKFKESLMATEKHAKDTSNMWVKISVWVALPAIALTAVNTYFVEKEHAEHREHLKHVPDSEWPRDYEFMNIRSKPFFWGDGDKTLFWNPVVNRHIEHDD

[5] = target: T2, Cox12, a subunit of CIV (S. cerevisiae (endogenous in YPH499 mitochondria)); experiment: as above
[6] = target: T4, Cox6 (S. cerevisiae (endogenous in YPH499 mitochondria)) (UniProt P00427); experiment: as above
T4 sequence: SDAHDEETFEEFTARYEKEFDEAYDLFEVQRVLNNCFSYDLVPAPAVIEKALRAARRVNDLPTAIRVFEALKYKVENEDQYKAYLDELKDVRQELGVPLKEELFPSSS

[7] = target: T5, Cox9 (CIV) (S. cerevisiae (endogenous in YPH499 mitochondria)) (UniProt P07255); experiment: as above
T5 sequence: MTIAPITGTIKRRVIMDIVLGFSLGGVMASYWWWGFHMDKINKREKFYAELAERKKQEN

[8] = target: T6, Qcr7 (S. cerevisiae (endogenous in YPH499 mitochondria)) (UniProt P00128); experiment: as above
T6 sequence: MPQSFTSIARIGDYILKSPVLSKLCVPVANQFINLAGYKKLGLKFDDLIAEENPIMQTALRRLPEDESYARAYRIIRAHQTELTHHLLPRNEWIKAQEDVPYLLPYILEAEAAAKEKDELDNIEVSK

[9] = target: T7, Qcr2 (S. cerevisiae (endogenous in YPH499 mitochondria)) (UniProt P07257); experiment: as above
T7 sequence: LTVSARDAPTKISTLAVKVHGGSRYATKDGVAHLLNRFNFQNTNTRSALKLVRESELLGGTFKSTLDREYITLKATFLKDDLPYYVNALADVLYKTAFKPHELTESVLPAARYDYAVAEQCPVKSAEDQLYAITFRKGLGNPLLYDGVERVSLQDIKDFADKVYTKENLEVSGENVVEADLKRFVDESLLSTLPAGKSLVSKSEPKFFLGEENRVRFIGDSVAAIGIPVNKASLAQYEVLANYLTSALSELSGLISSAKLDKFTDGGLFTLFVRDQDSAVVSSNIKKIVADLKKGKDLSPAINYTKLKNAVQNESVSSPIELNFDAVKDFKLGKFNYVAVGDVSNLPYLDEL

[10] = target: Pet9, the major ADP/ATP carrier (S. cerevisiae (endogenous in YPH499 mitochondria)) (UniProt P18239); experiment: as above

B2: Min8-HA (protein, UniProt A5Z2X5 1-72)
chain: MRPAQLLLNTAKKTSGGYKIPVELTPLFLAVGVALCSGTYFTYKKLRTDETLRLTGNPELSSLDEVLAKDKD
- binding [2]: binds

B3: Alo1, the D-arabinono-1,4-lactone oxidase (protein, UniProt P54783 1-526)
chain: MSTIPFRKNYVFKNWAGIYSAKPERYFQPSSIDEVVELVKSARLAEKSLVTVGSGHSPSNMCVTDEWLVNLDRLDKVQKFVEYPELHYADVTVDAGMRLYQLNEFLGAKGYSIQNLGSISEQSVAGIISTGSHGSSPYHGLISSQYVNLTIVNGKGELKFLDAENDPEVFKAALLSVGKIGIIVSATIRVVPGFNIKSTQEVITFENLLKQWDTLWTSSEFIRVWWYPYTRKCVLWRGNKTTDAQNGPAKSWWGTKLGRFFYETLLWISTKIYAPLTPFVEKFVFNRQYGKLEKSSTGDVNVTDSISGFNMDCLFSQFVDEWGCPMDNGLEVLRSLDHSIAQAAINKEFYVHVPMEVRCSNTTLPSEPLDTSKRTNTSPGPVYGNVCRPFLDNTPSHCRFAPLENVTNSQLTLYINATIYRPFGCNTPIHKWFTLFENTMMVAGGKPHWAKNFLGSTTLAAGPVKKDTDYDDFEMRGMALKVEEWYGEDLKKFRKIRKEQDPDNVFLANKQWAIINGIIDPSELSD
- binding [3]: binds

B4: Rcf2 (protein, UniProt P53721 1-224)
chain: MKILTQDEIEAHRSHTLKGGIEGALAGFAISAIIFKVLPRRYPKFKPSTLTWSIKTALWITPPTVLTAICAEEASNNFDATMYGSGSSSEDALDEHRRWKSLSTKDKFVEGLSNNKYKIITGAWAASLYGSWVIVNKDPIMTKAQKIVQARMYAQFITVGLLLASVGLSMYENKLHPNKQKVNEMRRWENALRVAEEEERLEKEGRRTGYVSNEERINSKIFKS
- binding [4]: binds
- binding [5]: binds

B6: Qcr6, a subunit of CIII (protein, UniProt P00127 1-147)
chain: MGMLELVGEYWEQLKITVVPVVAAAEDDDNEQHEEKAAEGEEKEEENGDEDEDEDEDEDDDDDDDEDEEEEEEVTDQLEDLREHFKNTEEGKALVHHYEECAERVKIQQQQPGYADLEHKEDCVEEFFHLQHYLDTATAPRLFDKLK
- binding [7]: binds

Further lines, results first:

- binding [1]: binds
B1: Tom40, the channel forming unit of the translocase of outer membrane (TOM) complex, P23644 1-387 (protein)
chain: MSAPTPLAEASQIPTIPALSPLTAKQSKGNFFSSNPISSFVVDTYKQLHSHRQSLELVNPGTVENLNKEVSRDVFLSQYFFTGLRADLNKAFSMNPAFQTSHTFSIGSQALPKYAFSALFANDNLFAQGNIDNDLSVSGRLNYGWDKKNISKVNLQISDGQPTMCQLEQDYQASDFSVNVKTLNPSFSEKGEFTGVAVASFLQSVTPQLALGLETLYSRTDGSAPGDAGVSYLTRYVSKKQDWIFSGQLQANGALIASLWRKVAQNVEAGIETTLQAGMVPITDPLMGTPIGIQPTVEGSTTIGAKYEYRQSVYRGTLDSNGKVACFLERKVLPTLSVLFCGEIDHFKNDTKIGCGLQFETAGNQELLMLQQGLDADGNPLQALPQL

- binding [6]: binds
B5: Cox26 (protein, UniProt Q2V2P9 9-66)
chain: SSARAAPIKRYTGGRIGESWVITEGRRLIPEIFQWSAVLSVCLGWPGAVYFFSKARKA

- binding [8]: binds
- binding [9]: binds
B7: Ndi1, the internal NADH:ubiquinone oxidoreductase (protein, UniProt P32340 27-513)
chain: STGVENSGAGPTSFKTMKVIDPQHSDKPNVLILGSGWGAISFLKHIDTKKYNVSIISPRSYFLFTPLLPSAPVGTVDEKSIIEPIVNFALKKKGNVTYYEAEATSINPDRNTVTIKSLSAVSQLYQPENHLGLHQAEPAEIKYDYLISAVGAEPNTFGIPGVTDYGHFLKEIPNSLEIRRTFAANLEKANLLPKGDPERRRLLSIVVVGGGPTGVEAAGELQDYVHQDLRKFLPALAEEVQIHLVEALPIVLNMFEKKLSSYAQSHLENTSIKVHLRTAVAKVEEKQLLAKTKHEDGKITEETIPYGTLIWATGNKARPVITDLFKKIPEQNSSKRGLAVNDFLQVKGSNNIFAIGDNAFAGLPPTAQVAHQEAEYLAKNFDKMAQIPNFQKNLSSRKDKIDLLFEENNFKPFKYNDLGALAYLGSERAIATIRSGKRTFYTGGGLMTFYLWRILYLSMILSARSRLKVFFDWIKLAFFKRDFFKGL

- binding [10]: binds
B8: Nde1, the external NADH:ubiquinone oxidoreductase (protein, UniProt P40215 42-560)
chain: EDKKVILQKVAPTTGVVAKQSFFKRTGKFTLKALLYSALAGTAYVSYSLYREANPSTQVPQSDTFPNGSKRKTLVILGSGWGSVSLLKNLDTTLYNVVVVSPRNYFLFTPLLPSTPVGTIELKSIVEPVRTIARRSHGEVHYYEAEAYDVDPENKTIKVKSSAKNNDYDLDLKYDYLVVGVGAQPNTFGTPGVYEYSSFLKEISDAQEIRLKIMSSIEKAASLSPKDPERARLLSFVVVGGGPTGVEFAAELRDYVDQDLRKWMPELSKEIKVTLVEALPNILNMFDKYLVDYAQDLFKEEKIDLRLKTMVKKVDATTITAKTGDGDIENIPYGVLVWATGNAPREVSKNLMTKLEEQDSRRGLLIDNKLQLLGAKGSIFAIGDCTFHPGLFPTAQVAHQEGEYLAQYFKKAYKIDQLNWKMTHAKDDSEVARLKNQIVKTQSQIEDFKYNHKGALAYIGSDKAIADLAVGEAKYRLAGSFTFLFWKSAYLAMCLSFRNRVLVAMDWAKVYFLGRDSSI
